Measurements from patent US20250312378A1, “COMPOSITION COMPRISING ANTI-FOLIC ACID AGENT FOR DIFFERENTIATION OF MESENCHYMAL STEM CELL INTO CARTILAGE” (EWHA UNIVERSITY-INDUSTRY COLLABORATION FOUNDATION, priority 2021, published 2025).
Some entries share one result that the patent states for a list of compounds.

Test: In vitro drug release from PEG-PA thermogel into PBS (HPLC)
Format: physicochemical
Conditions: from PEG-PA thermogel (10.0 wt %) into PBS, 37° C.
Method: The drug release profile of the thermogel was determined in vitro. […] The temperature of the polymer solution containing the drug was increased to 37° C. to cause a sol-gel transition. After 30 minutes, phosphate-buffered saline (PBS) (1.2 mL, 37° C.) was added thereto, and the mixture was placed in a shaking thermostatic bath with 40 strokes/min at 37° C. PBS was replaced at specific sampling intervals. The drug released into the medium, PBS, was analyzed by a high-performance liquid chromatography system (HPLC; Waters 1525B, USA) equipped with a photodiode detector (Waters 2998, USA) and a Jupiter@5 μm C18 300A LC column (Phenomenex, USA). As a mobile phase, a mixed solvent of methanol/water (40/60 v/v) containing trifluoroacetic acid (0.1%) was used for dapsone, pralatrexate and trimethoprim, and a mixed solvent of acetonitrile/water (35/65 v/v) containing formic acid (0.1%) was used for KGN. The flow rate was set at 1.0 ml/min. The amount of drug released was analyzed at 260 nm for dapsone, 307 nm for pralatrexate, 287 nm for trimethoprim, and 274 nm for KGN, and was determined as the mean value of triplicate determinations.

SMILES	drug released over 3 days
C#CCC(Cc1cnc2nc(N)nc(N)c2n1)c1ccc(C(=O)N[C@@H](CCC(=O)O)C(=O)O)cc1 (some centres unmarked) [pralatrexate]	More than 95%
Nc1ccc(S(=O)(=O)c2ccc(N)cc2)cc1 [dapsone]	More than 95%
